Results reported in article PMC11609211.
Results are given in words; binding and its absence hold for the method and conditions named. Binding seen in cells or lysates may run through a third protein. Binding can be weak; no strength is given. Where a sequence is shown, tags or fusion partners need not be part of it.

Target: T1, Flag-tagged NDP52/CALCOCO2 (UniProt Q13137)
T1 sequence: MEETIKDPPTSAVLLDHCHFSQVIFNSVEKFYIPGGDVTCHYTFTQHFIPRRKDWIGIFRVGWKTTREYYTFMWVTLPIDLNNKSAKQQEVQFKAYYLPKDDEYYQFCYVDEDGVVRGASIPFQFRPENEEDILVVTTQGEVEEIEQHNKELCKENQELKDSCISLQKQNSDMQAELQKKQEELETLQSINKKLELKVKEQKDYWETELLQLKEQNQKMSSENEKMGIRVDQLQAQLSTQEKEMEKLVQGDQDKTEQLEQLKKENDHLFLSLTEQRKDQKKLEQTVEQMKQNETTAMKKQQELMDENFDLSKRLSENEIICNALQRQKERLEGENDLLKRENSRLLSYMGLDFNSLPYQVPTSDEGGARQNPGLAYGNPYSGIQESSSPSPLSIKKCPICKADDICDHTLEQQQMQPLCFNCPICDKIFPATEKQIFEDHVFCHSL
Experiment: co-IP; HEK-293T cells co-transfected with the tagged plasmids; whole-cell lysate (50 mM Tris-HCl pH 7.4, 150 mM NaCl, 1% NP-40, 10% glycerin, 0.1% SDS, 2 mM Na2EDTA) incubated at 4°C for 4 h with anti-Flag or anti-HA affinity gel; immunoblot

Substance: HA-tagged PDCoV nucleocapsid (N) protein (porcine deltacoronavirus (PDCoV))
- binding: binds
